Results from one PubChem assay

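Luminescence from an EWS-FLI1 target-promoter (NR0B1) reporter, set against a CMV-promoter reporter, two days after silencing single genes in TC32 Ewing sarcoma cells. Each siRNA was applied at 20 nM. A z-score of the log NR0B1-over-CMV signal, less the median of siRNAs with the same seed; more negative means a stronger specific loss of the NR0B1 reporter.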

This is part of the screen; most of the strongest results are not listed here. Sequences are the guide (antisense) strand, without overhang.

* AAUGAAUACACUGUGAUGU against FNDC7 : seed-corrected z-score -0.8401
* AUUUACAAAUCUUUUGUCU against CWC15 : seed-corrected z-score 0.3833
* UAGAUUAAGUUUUCGGACC against TGFBRAP1 : seed-corrected z-score 0.3368
* UUAUCGAACAAUUUCAGCC against TBC1D31 : seed-corrected z-score -0.05233
* UCUUCUAACCGGGACAUUC against ARHGAP22 : seed-corrected z-score 0.4768
* UAAUUUCCGCCCUUCGUUU against LINC01118 : seed-corrected z-score 1.914
* UUGUAAAUGAGCAGCGUGC against PAPLN : seed-corrected z-score -0.04086
* UGUCCAAAAACCUUGUCUC against TXNRD3NB : seed-corrected z-score -0.213
* UUCGUGGUACUUGCGAUCG against ATP8B1 : seed-corrected z-score -0.2842
* UGGUUUUACAAUCAUCAGC against RPL7P56 : seed-corrected z-score 0.1032
* AAUUGUCAAUGCUUUGUCC against KCNJ13 : seed-corrected z-score 0.245
* UCAGAACUAUGGACGUGGC against FUT7 : seed-corrected z-score 0.3218
* UAAAUCUGCGGAACAGAGG against HLA-DQA1 : seed-corrected z-score 0.6451
* AAUGAUGUCACACUCUGCC against PADI3 : seed-corrected z-score 0.6446
* UUAGCAACCACACGGGUGC against PTTG1 : seed-corrected z-score 0.5582
* AAAGUGAAGCAGUUGAUGA against ADORA2A : seed-corrected z-score 0.2155
* UCCCUCAUGACAUCUGGCC against C19orf48 : seed-corrected z-score 0.2751
* AUCGUCGAUAUUGAUGUCC against AK7 : seed-corrected z-score -0.04406
* UUAGGGUAGGCAAUGUUGG against SLC5A9 : seed-corrected z-score 0.8122
* AAUUCCAUAAUCUUGGUCG against ADAMTS17 : seed-corrected z-score -0.3385
* UUGCGCACACUGAAGAUCC against GPR50 : seed-corrected z-score -0.3023
* UACCUUGAAUCCAUACUGC against CARNMT1 : seed-corrected z-score -1.61
* UUCUUUCUCAAGCGACUUC against CIZ1 : seed-corrected z-score -0.7233
* UAAAUACCUCUUCUUGUCC against C4orf26 : seed-corrected z-score 0.5081
* UGUAGAUAAACAUUGGUGC against MYOT : seed-corrected z-score -0.06369
* UCCACGACCAAAUUUGCCU against RPS10P29 : seed-corrected z-score -0.691
* UGUGAGAUUAAGUGCAAGC against LAMB2 : seed-corrected z-score -0.3065
* UAAUGUUUUCUACAAGUUC against FAM189A2 : seed-corrected z-score -1.83
* UCACAGCUCACGAUGCAGG against AADACL3 : seed-corrected z-score -0.4278
* UAUAGCAUUAAUCAAGAUG against ARV1 : seed-corrected z-score -0.02327
* UAUCCGACUGAUGGAAGGC against G6PD : seed-corrected z-score 0.2064
* AAUGUACUUAUGGAUGAAC against INTS1 : seed-corrected z-score -0.3952
* UCUUAUAACCAUGUUUCUC against SHFM1 : seed-corrected z-score 0.5737
* UACAGUCCUCUUGCAGUUG against SLC10A4 : seed-corrected z-score 0.005573

Some entries from above, unchanged:

strand	gene	seed-corrected z-score
UCCACGACCAAAUUUGCCU	RPS10P29	-0.691
UAUCCGACUGAUGGAAGGC	G6PD	0.2064
UGUGAGAUUAAGUGCAAGC	LAMB2	-0.3065

Source: PubChem BioAssay AID1159506 (NCATS, 2015).